No constants are given. Whether binding was seen depends on the method and setting. Some results given as binding are weak or reduced against the parent protein; the word gives no strength. Tags and fused reporters may be left off the sequences shown.
Key:
[1] = molecular target: T1, Rad5 1-984 a.a., Gal4 DNA-binding domain fusion (pGBT9-rad5-1-984 a.a., p442) (budding yeast) (UniProt P32849); test: two-hybrid; yeast two-hybrid, Gal4 AD and BD fusions expressed from high-copy-number plasmids (2μ-based); also the Rad5 deletion constructs in pGBT9
T1 sequence: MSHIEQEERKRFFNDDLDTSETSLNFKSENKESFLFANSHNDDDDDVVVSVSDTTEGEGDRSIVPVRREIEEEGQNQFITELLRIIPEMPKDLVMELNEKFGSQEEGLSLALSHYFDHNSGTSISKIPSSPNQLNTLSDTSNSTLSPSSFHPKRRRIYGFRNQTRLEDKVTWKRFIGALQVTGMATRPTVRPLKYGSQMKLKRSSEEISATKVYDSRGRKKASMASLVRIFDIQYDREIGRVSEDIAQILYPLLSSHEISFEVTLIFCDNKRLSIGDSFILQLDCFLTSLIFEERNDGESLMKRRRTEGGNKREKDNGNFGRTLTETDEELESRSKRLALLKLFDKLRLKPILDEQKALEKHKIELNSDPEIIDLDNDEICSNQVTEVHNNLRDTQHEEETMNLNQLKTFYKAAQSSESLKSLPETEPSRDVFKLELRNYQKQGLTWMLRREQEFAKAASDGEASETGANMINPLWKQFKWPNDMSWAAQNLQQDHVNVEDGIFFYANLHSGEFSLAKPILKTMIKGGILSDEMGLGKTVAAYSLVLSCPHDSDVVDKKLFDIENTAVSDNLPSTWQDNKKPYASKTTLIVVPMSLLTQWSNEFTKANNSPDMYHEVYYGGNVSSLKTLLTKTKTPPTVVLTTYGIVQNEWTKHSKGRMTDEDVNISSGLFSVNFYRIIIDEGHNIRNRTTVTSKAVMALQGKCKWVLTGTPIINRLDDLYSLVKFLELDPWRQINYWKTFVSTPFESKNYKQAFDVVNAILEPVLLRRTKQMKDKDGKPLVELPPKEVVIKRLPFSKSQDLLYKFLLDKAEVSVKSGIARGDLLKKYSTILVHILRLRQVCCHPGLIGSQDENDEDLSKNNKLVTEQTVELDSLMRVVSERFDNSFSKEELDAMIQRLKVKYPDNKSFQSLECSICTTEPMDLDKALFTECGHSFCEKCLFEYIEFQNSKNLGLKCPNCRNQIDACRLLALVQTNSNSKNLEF

Sequences of proteins named here, by UniProt entry; tags and fusion partners are left off.
UniProt P15873: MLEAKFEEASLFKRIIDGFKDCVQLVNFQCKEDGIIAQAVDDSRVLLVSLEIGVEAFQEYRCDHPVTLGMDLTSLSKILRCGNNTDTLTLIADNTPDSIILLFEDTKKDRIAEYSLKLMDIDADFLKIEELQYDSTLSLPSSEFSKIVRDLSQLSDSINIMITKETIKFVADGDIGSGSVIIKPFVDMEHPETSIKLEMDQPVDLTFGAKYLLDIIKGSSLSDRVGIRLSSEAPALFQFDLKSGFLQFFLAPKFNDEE

[2] = molecular target: T2, full length Rad5 (1-1169 a.a.), Gal4 DNA-binding domain fusion (pGBT9-RAD5, p347) (budding yeast) (UniProt P32849); test: as above
T2 sequence: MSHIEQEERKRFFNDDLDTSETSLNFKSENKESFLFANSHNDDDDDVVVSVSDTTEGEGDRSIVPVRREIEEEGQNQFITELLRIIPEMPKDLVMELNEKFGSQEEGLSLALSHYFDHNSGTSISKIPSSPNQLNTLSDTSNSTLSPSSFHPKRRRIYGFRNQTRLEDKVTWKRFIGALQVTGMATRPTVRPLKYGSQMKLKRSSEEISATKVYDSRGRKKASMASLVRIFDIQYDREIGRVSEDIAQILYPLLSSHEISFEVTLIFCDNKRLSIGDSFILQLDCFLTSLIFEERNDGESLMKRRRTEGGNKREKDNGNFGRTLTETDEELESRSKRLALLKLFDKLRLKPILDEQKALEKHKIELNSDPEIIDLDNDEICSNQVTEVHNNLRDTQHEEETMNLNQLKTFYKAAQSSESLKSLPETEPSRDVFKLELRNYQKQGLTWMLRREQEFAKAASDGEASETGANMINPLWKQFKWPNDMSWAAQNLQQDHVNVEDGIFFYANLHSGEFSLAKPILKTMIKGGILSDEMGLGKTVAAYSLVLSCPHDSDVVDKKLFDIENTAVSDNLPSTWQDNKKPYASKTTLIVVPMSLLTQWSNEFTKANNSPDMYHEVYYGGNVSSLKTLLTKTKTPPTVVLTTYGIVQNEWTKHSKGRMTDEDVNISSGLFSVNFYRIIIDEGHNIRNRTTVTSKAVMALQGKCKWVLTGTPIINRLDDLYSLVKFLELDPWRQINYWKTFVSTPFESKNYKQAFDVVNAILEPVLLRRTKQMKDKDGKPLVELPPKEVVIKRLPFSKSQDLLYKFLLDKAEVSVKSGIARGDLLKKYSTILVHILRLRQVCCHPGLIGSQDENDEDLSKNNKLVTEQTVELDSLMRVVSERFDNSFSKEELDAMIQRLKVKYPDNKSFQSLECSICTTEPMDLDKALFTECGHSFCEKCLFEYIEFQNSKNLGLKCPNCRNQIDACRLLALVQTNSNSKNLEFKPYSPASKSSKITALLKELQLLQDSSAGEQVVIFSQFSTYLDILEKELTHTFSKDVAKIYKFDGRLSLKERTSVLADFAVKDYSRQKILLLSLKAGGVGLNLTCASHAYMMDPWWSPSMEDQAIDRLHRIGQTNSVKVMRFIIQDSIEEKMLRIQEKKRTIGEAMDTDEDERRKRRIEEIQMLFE

binding [1]: binds
binding [2]: binds
Substance: PCNA, Gal4 activation domain fusion (pGAD424-POL30, p343) (from UniProt P15873 1-258)
